PubChem BioAssay AID1259280 | Sanger Institute, 2017
In all, the deposit lists 794 reagents; shown is an unselected part. 12 of all reagents (1.5%) count as active. 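Calls cover knock-down without drug only; synergy scores stand apart, values above 0.15 being treated as synergy.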 A number with no mark means an inactive call. No viability above 1 is reported: the scale is capped. Not stated in the record: the amount of reagent, the time to read-out.

Test: 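Kinase knock-downs that kill colorectal cancer cells or add to anchor drugs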 (primary screen)
System: human SNU407 colorectal cancer cells
Knock-down reagent: siRNA pool against human genes
Treatment: anchor drugs BYL719 at 1 µM, cetuximab at 5 µg/ml or trametinib at 10 nM, or DMSO vehicle alone; exposure time not given
Measured: 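Viability per well scaled to a non-targeting pool and averaged over replicates, with a robust z-score from controls and a synergy score per anchor drug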
Direction: viability z-score, no drug and viability vs control, no drug: higher = more cells survive the knock-down; synergy with trametinib and synergy with BYL719 and synergy with cetuximab: higher = stronger synergy of knock-down with drug
Active means: 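a knock-down counts as essential when its robust viability z-score without drug is below -3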
Meaning of the calls: active = essential (knock-down alone kills cells); inactive = no change without drug

Target gene | viability z-score, no drug | viability vs control, no drug (fraction of control) | synergy with trametinib | synergy with BYL719 | synergy with cetuximab
HK2 | -1.37 | 0.826 | -0.0637 | 0.0599 | -0.0411
ERBB4 | -0.977 | 0.857 | -0.0652 | 0.0331 | 0.0323
PEAK1 | -1.96 | 0.781 | -0.084 | -0.014 | -0.0932
DYRK2 | -1.79 | 0.794 | -0.028 | -0.0328 | -0.0745
GNAS | -1.6 | 0.809 | -0.101 | -0.027 | -0.00352
CHUK | 0.901 | 1 | -0.092 | -0.00793 | 0.0768
MED12 | -0.643 | 0.882 | -0.0422 | -0.0248 | 0.0537
STK16 | 0.901 | 1 | -0.0655 | 0 | 0.0147
CDK1 | 0.803 | 0.993 | 0.0872 | 0.0714 | 0.136
CAMK1G | 0.901 | 1 | 0.0195 | 0.0546 | 0.000996
FBXW7 | 0.626 | 0.979 | 0.0378 | -0.0707 | -0.077
PRPS2 | -0.771 | 0.872 | 0.071 | -0.0266 | 0.0347
PRKCA | -0.267 | 0.911 | 0.00835 | 0.0447 | -0.132
PRP4K | 0.0795 | 0.937 | 0.0636 | 0.00725 | 0.0563
CKM | 0.901 | 1 | -0.026 | -0.0238 | -0.0183
ELP1 | 0.442 | 0.965 | -0.0434 | 0.149 | -0.0841
ITK | 0.901 | 1 | -0.102 | -0.177 | -0.0886
MPP2 | 0.901 | 1 | 0.0975 | 0.0894 | 0.00394
CSNK1G2 | 0.558 | 0.974 | -0.171 | -0.00258 | -0.0572
IP6K2 | 0.901 | 1 | -0.0452 | 0.0898 | 0.143

In a second layout: results already given
{"Target gene":"DYRK2","viability z-score, no drug":-1.79,"viability vs control, no drug (fraction of control)":0.794,"synergy with trametinib":-0.028,"synergy with BYL719":-0.0328,"synergy with cetuximab":-0.0745}
{"Target gene":"GNAS","viability z-score, no drug":-1.6,"viability vs control, no drug (fraction of control)":0.809,"synergy with trametinib":-0.101,"synergy with BYL719":-0.027,"synergy with cetuximab":-0.00352}
{"Target gene":"CHUK","viability z-score, no drug":0.901,"viability vs control, no drug (fraction of control)":1,"synergy with trametinib":-0.092,"synergy with BYL719":-0.00793,"synergy with cetuximab":0.0768}
